Results published in article PMC11801707.

Amino acid sequences for entries named in this document (tags omitted). A change or cut given only in a name is not applied to a line headed by its entry.
UniProt A5A757: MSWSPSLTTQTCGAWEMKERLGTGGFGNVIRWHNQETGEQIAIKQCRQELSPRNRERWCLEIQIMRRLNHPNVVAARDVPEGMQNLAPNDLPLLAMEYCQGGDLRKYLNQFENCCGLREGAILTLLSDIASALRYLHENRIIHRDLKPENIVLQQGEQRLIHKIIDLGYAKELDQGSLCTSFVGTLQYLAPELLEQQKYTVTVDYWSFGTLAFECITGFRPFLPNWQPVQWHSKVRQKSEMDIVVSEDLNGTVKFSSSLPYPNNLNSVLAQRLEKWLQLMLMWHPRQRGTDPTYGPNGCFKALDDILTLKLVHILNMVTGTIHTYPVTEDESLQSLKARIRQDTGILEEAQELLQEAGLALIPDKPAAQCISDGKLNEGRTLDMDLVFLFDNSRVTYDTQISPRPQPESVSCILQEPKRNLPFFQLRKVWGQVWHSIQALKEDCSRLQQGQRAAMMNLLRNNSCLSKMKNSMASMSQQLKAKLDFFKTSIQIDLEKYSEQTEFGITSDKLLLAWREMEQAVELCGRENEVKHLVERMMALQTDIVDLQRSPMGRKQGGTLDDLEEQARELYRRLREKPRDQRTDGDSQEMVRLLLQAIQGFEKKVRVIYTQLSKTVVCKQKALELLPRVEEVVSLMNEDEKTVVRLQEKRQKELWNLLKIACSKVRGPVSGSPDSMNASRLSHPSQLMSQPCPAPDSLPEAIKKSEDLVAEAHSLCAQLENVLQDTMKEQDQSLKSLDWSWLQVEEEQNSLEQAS
UniProt G9M4L5: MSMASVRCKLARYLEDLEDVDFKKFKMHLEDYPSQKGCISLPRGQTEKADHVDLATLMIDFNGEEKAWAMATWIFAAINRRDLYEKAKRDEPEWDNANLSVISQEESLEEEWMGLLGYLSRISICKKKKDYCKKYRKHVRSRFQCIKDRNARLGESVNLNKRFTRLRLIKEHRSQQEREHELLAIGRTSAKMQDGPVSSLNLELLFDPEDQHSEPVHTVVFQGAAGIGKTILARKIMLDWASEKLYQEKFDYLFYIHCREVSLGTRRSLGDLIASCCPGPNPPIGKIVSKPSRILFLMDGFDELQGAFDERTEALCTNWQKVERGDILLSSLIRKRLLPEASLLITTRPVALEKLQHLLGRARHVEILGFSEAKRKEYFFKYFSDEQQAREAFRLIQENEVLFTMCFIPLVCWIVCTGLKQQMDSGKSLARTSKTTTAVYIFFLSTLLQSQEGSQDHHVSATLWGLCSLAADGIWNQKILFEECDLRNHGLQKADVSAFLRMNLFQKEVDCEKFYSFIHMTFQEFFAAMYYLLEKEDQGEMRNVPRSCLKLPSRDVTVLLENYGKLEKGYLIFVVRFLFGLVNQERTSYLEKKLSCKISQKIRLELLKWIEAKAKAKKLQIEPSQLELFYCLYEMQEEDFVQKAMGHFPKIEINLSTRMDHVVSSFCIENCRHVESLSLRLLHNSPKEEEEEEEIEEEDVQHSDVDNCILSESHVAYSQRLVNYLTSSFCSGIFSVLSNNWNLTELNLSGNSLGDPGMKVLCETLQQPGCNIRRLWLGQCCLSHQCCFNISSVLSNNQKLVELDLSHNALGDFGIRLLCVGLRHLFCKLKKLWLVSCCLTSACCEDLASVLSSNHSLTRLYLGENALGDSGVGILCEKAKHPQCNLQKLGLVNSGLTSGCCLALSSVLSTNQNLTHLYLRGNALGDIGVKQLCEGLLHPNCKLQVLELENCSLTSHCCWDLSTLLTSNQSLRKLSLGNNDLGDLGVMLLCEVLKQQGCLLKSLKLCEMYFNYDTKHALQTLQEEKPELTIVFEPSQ

Experiments:
[1] = target: HA-tagged IKKβ (porcine) (pig (amplified from PAMs)) (UniProt A5A757); test: co-IP; HEK293T co-transfected; lysates immunoprecipitated with an anti-HA antibody plus Protein A/G beads, Western blot
[2] = target: Flag-tagged NLRP3 (porcine) (pig (amplified from PAMs)) (UniProt G9M4L5)

Row | binding [1] | binding [2] | Substance
1 | binds |  | Flag-tagged NLRP3 (porcine) (from UniProt G9M4L5)
2 |  | binds | HA-tagged IKKβ (porcine) (from UniProt A5A757) (enzyme)

Results are given in words; binding and its absence hold for the method and conditions named. Binding seen in cells or lysates may run through a third protein. A result given as binding can be weak or reduced; the word gives no strength.
